# In PubChem BioAssay AID2685 (National Center for Advancing Translational Sciences (NCATS), 2010):
# The list shows a part of the results. Further columns of the screen follow, without active or inactive calls. The list favours compounds with an active or inconclusive main result. The note in brackets gives the kind of curve behind each potency; many fits are weak.
# Experiment: qHTS Assay for Lipid Storage Modulators in Drosophila S3 Cells;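 as to cell number change: cells counted by Cell Tracker Red CMTPX staining in the red channel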
# Conditions: BODIPY lipid droplet fluorescence, 18-24 h; for cell number change: measured here: cell count max response, cells fed with added oleic acid
# How it was run: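 Drosophila S3 cells got compounds at several concentrations plus oleic acid (400 uM solution). Laser-scanning cytometry with 488 nm excitation read lipid droplets at 500-530 nm and cells at 575-640 nm. Percent activity was relative to 20 uM Triacsin C.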
# [1] = measured here: lipid fluorescence (Fed channel) AC50, cells fed with added oleic acid
# [2] = measured here: cell number channel AC50, cells fed with added oleic acid
Structure (SMILES),cell number change [%],AC50 [1],AC50 [2]
CN1C(=O)/C(=C/c2ccccc2F)Sc2ccc(C(=O)N3CCCC3)cc21,-23.4,"6.51 µM [falling, full curve]",–
CN1C(=O)N(CN2CCCCC2)C2C1N(C)C(=O)N2CN1CCCCC1 (stereo not given),-105,"23.1 µM [falling, single point]","0.291 µM [falling, full curve]"
CC(=O)NCc1cc(-c2nn(C)c(=O)c3ccccc23)ccc1C,–,"29.1 µM [falling, single point]",–
COC(=O)c1c(NC(=O)C2COc3ccccc3O2)sc2c1CCN(C(C)=O)C2 (stereo not given),25.3,"1.03 µM [rising, partial curve]",–
Cc1cc(=O)[nH]c2c(C)c(Cl)ccc12,10.4,"0.082 µM [rising, full curve, poor fit]",–
Cn1ncc(Cl)c1C(=O)NC(=S)Nc1sc2c(c1C#N)CCCCC2,–,"29.1 µM [rising, single point]",–
C=CCN1CCN(C(c2ccc(Cl)cc2)c2nnnn2CCc2ccc(OC)c(OC)c2)CC1 (stereo not given),–,"0.651 µM [falling, single point]","0.366 µM [falling, partial curve, poor fit]"
O=C(Cn1cnc2cc([N+](=O)[O-])ccc2c1=O)Nc1ccc(N2CCOCC2)cc1,2.76,"0.291 µM [rising, full curve, poor fit]",–
CCOCCn1c(C(C)C)nc2ccccc21,–,"6.51 µM [falling, single point]",–
Cc1ccc2c(c1)C(=O)C(=O)N2CC(=O)OC(C)C,32.1,"29.1 µM [rising, partial curve, poor fit]","0.184 µM [rising, full curve, poor fit]"
O=C(COC(=O)c1ccc(F)cc1)NCc1ccc(F)cc1,-23.9,"0.651 µM [falling, full curve, poor fit]",–
COc1cccc(CNC(=O)COC(=O)CCS(=O)(=O)c2ccc(C)cc2)c1,-21.7,"2.91 µM [rising, single point]",–
CCOP(=O)(OCC)C(NC(=O)c1cccs1)C(F)(F)F (stereo not given),72.3,"29.1 µM [rising, single point]","29.1 µM [rising, single point]"
Cn1c(=O)cc(SCC(=O)NCCC2=CCCCC2)c2ccccc21,8.56,"0.461 µM [rising, partial curve, poor fit]","0.651 µM [rising, partial curve, poor fit]"
CCOc1ccc(NC(=O)CSc2n[nH]c(=O)n2-c2ccccc2)cc1,7.83,–,–
